The target in the assay is human PD-L1 expressed on the surface of cells (human) (UniProt Q9NZQ7). Put plainly: flow cytometry on activated human lymphocytes (FIG. 1 legend). Background: A flow cytometer gives signals particle by particle.

Amino acid sequences for entries named in this document (tags omitted). Residues count along the entry.
UniProt Q9NZQ7, residues 19-290: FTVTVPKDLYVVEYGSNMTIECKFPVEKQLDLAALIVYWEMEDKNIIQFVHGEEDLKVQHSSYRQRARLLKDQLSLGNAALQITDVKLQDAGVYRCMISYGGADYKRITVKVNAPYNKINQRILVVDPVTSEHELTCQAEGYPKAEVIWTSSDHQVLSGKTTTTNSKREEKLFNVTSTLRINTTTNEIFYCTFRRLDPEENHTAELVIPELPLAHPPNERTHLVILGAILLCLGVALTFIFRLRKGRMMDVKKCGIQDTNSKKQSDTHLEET

No constants are given. Whether binding was seen depends on the method and setting. Some binding calls cover weakened binding; strength is not graded here.

B1: H10 anti-PD-L1 antibody (antibody, V domains shown)
VH: EVQLVQSGGGLVQPGGSLRLSCAASGFTFSSYSMNWVRQAPGKGLEWVSYISSSSSTIYYADSVKGRFTISRDNAKNSLYLQMNSLRDEDTAVYYCARGDYYYGMDVWGQGTTVTVSS
VL: EIVLTQSPSSLSASIGDRVTLTCRASQSIRRFLNWYQQKPGKAPELLIYTASSLQSGVPSRFSGSGSGTDFTLTINSLQPEDFATYYCQQSYAVSPYTFGQGTKVEIR
For the molecule B1, the binding result is “binds”.

These data come from US20130323249A1.
